# Test results taken from PubChem BioAssay AID504467 (National Center for Advancing Translational Sciences (NCATS), 2011).
# About 7,700 (2.3%) of roughly 330,000 compounds were called active. This list was built around the results that the source calls inconclusive (neither active nor inactive); the mix of calls is not that of the screen. Calls come from the whole dose curve; as a rule, active = well fitted inhibition curve with a large enough effect; inconclusive = small, poorly fitted or top-dose-only effect, or effect the other way; inactive = flat fitted curve, though single readings scatter. Where the call is inconclusive, the potency comes from a doubtful curve fit.
# Test: qHTS screen for small molecules that inhibit ELG1-dependent DNA repair in human embryonic kidney (HEK293T) cells expressing luciferase-tagged ELG1; note: nearly all actives have a fitted effect of over 55% in size
# Conditions: HEK293T ELG1-luciferase reporter, luminescence, 16 h, DNA damage induced by 5-fluorouridine; activity change, negative = inhibition: at 46.1 µM (top of the series)
# Summary of the method: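 In this reporter screen, reduction of luminescence relative to DMSO vehicle indicated activity. Compounds and 5-fluorouridine were added together to 2,000 cells per well, incubated for 16 hr at 37 °C, then developed with ONE-Glo.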
# % is set by controls: 0 for no effect and ±100 for the full control effect; potency is the fitted concentration of half-maximal effect.
SMILES,Potency,"activity change, negative = inhibition"
CC(=O)Nc1ccc(S(=O)(=O)Oc2ccccc2N2C(=O)C3C4CCC(C4)C3C2=O)cc1 (stereo not given),"inconclusive: 0.206 µM [inhibitor, partial curve, poor fit]",
COc1ccccc1C(=O)Nc1ccnn1C1CCN(Cc2cnn(C)c2C)CC1,,inactive: 8.08%
Clc1ccccc1-c1ncc(-c2ccccc2)o1,"inconclusive: 10.3 µM [activator, partial curve]",
CCC(=O)c1c[nH]c(C(=O)NCCc2ccccn2)c1,"inconclusive: 16.4 µM [activator, partial curve]",
CCCCS(=O)(=O)c1sc2nc3c(cc2c1N)CCCC3,"inconclusive: 32.6 µM [inhibitor, single point]",
Cc1nc(NC(=O)CN2CCOCC2)sc1-c1ccccc1,"inconclusive: 20.6 µM [activator, single point]",
CCc1ccccc1-n1c(SCC(=O)Nc2ccc3c(c2)OCCO3)nc2[nH]ncc2c1=O,"inconclusive: 14.6 µM [activator, partial curve]",
O=C(c1cc(F)c(F)c(F)c1F)N1CCN(Cc2ccc3c(c2)OCO3)CC1,,inactive: -0.0629%
COc1ccc(-c2nc(CSCC(=O)NCc3ccc4c(c3)OCO4)c(C)o2)cc1OC,"inconclusive: 29.1 µM [inhibitor, single point]",
COc1cc(OC)cc(C(=O)NCC(=O)OCC(=O)c2ccc3c(c2)-c2ccccc2C3)c1,"inconclusive: 16.4 µM [activator, partial curve, poor fit]",
Cc1nc(C)c(C(=O)Nc2ccccc2)s1,"inconclusive: 18.4 µM [activator, single point]",
COc1cc(NC(=O)c2cc(-c3cccs3)on2)cc(OC)c1OC,"inconclusive: 2.06 µM [inhibitor, partial curve, poor fit]",
COc1ccccc1N1CCN(C(=O)c2oc3c(c2C)C(=O)CC(C)(C)C3)CC1,active: 20.6 µM,
CCCC(=O)N1c2ccccc2C(N(C(C)=O)c2ccccc2)CC1C (stereo not given),,inactive: -4.86%
N#Cc1c(N2CCCCC2)nc(N)c2c(N)nc3c(c12)CC(c1ccccc1)O3 (stereo not given),"inconclusive: 29.1 µM [inhibitor, partial curve, poor fit]",
O=C(O)Cn1cnc2c(OCc3ccccc3)ncnc21,,inactive: 10.1%
COC(=O)c1cc(=O)n(Cc2cccs2)c(=Nc2ccccc2)s1,"inconclusive: 29.1 µM [inhibitor, single point]",
CCCCOc1ccc(NC2=NC3(CCCC3)N=C(N)N2)cc1,,inactive: 3.46%
CCCn1c(NCc2ccc(N(C)C)cc2)nc2ccccc21,"inconclusive: 23.1 µM [activator, single point]",
N#Cc1c(NC(NC(=O)c2ccco2)C(=O)c2ccccc2)sc2c1CCCC2 (stereo not given),,inactive: -6.04%
COc1ccc(CNS(=O)(=O)c2c(C)[nH]c(C)c2C(=O)N2CCCCC2)cc1,"inconclusive: 18.3 µM [activator, partial curve, poor fit]",
O=C(N/N=C/c1cccc(O)c1)c1ccccc1O,"inconclusive: 18.3 µM [activator, single point]",
CC1=CC(C)(C)NC(=S)N1c1ccc(C)c(C)c1,"inconclusive: 16.4 µM [inhibitor, single point]",
O=C(CCCOc1ccc(Cl)cc1Cl)NCc1ccccn1,"inconclusive: 6.51 µM [inhibitor, single point]",

# A draw from above in order of SMILES length, falling:
SMILES,Potency,"activity change, negative = inhibition"
N#Cc1c(N2CCCCC2)nc(N)c2c(N)nc3c(c12)CC(c1ccccc1)O3 (stereo not given),"inconclusive: 29.1 µM [inhibitor, partial curve, poor fit]",
O=C(c1cc(F)c(F)c(F)c1F)N1CCN(Cc2ccc3c(c2)OCO3)CC1,,inactive: -0.0629%
O=C(O)Cn1cnc2c(OCc3ccccc3)ncnc21,,inactive: 10.1%
O=C(N/N=C/c1cccc(O)c1)c1ccccc1O,"inconclusive: 18.3 µM [activator, single point]",

# Further compounds:

SMILES,Potency,"activity change, negative = inhibition"
COCCN(C(=O)Nc1ccccc1OC)c1nc2ccccc2s1,,inactive: -5.67%
Nc1nc(-c2ccc(S(=O)(=O)N3CCCCC3)cc2)cs1,"inconclusive: 16.4 µM [inhibitor, partial curve]",
COc1ccc(-c2csc(N3CCN(C(=O)c4ccccc4)CC3)n2)cc1,"inconclusive: 29.1 µM [inhibitor, single point]",
CSCCNC(=O)c1ccc2nc(C3CCCCC3)oc2c1,"inconclusive: 18.3 µM [activator, single point]",
CS(=O)(=O)C1=NSC2=NC(=O)/C(=C\c3cccn3-c3ccc(Cl)cc3)C(=N)N21,,inactive: 15.8%
CCOC(=O)c1ccc(NC(=S)N2CCN(C(=O)C3CCCO3)CC2)cc1 (stereo not given),,inactive: -15.7%
COCCNC(=O)c1ccc(-c2csc(C)n2)cc1,"inconclusive: 20.6 µM [activator, partial curve]",
O=C(NCc1ccccn1)Nc1ccc(Br)cc1Cl,"inconclusive: 16.4 µM [activator, partial curve]",
Cc1noc(C)c1CN(C(=S)NC1CC2CCC1C2)c1ccccc1 (stereo not given),"inconclusive: 29.1 µM [inhibitor, single point]",
Cc1nn(Cc2ccc(F)cc2)c2sc(C(=O)Nc3ccc(N4CCOCC4)cc3N3CCOCC3)cc12,active: 18.4 µM,
COCCN(C(C)=O)c1nnc(-c2ccccn2)s1,"inconclusive: 20.6 µM [activator, partial curve]",
CN(CC(=O)Nc1cccc(F)c1)CC(=O)Nc1cccc(S(=O)(=O)N2CCCCCC2)c1,"inconclusive: 20.6 µM [inhibitor, single point]",
CCCSc1nc2c(c(=O)[nH]c(=O)n2C)n1CC(O)COc1ccccc1 (stereo not given),"inconclusive: 23.1 µM [inhibitor, partial curve, poor fit]",
COc1ccc(-c2cc(C(F)(F)F)nc(S(=O)(=O)CCCC(=O)Nc3cccc(O)c3)n2)cc1OC,"inconclusive: 20.6 µM [activator, single point]",
N#Cc1nc(-c2ccc(F)cc2)oc1N1CCCCC1,"inconclusive: 20.6 µM [activator, single point]",
O=S(=O)(c1cccs1)n1nnc2ccccc21,"inconclusive: 1.26 µM [inhibitor, single point]",
COc1cccc(-c2nn(Cc3ccccc3)cc2CO)c1,"inconclusive: 11.6 µM [activator, partial curve]",
COc1ccccc1N1CCN(C(=S)Nc2ccccc2)CC1,"inconclusive: 12.6 µM [activator, single point]",
CCCCC1=CC2=C(c3ccco3)C(=O)C(C)(OC(=O)c3ccc(OC)cc3)C(=O)C2=CN1CC(C)C (stereo not given),,inactive: 6.25%
CCOC(=O)c1c(NC(=O)COc2ccccc2C#N)sc2c1CC(C)(C)NC2(C)C,"inconclusive: 2.91 µM [inhibitor, full curve]",
Cc1cccc(NS(=O)(=O)c2ccc(Br)s2)n1,,inactive: 12.5%
CC(C)COP(=O)(c1ccc(N(C)C)cc1)C(O)c1ccc(Br)cc1 (stereo not given),,inactive: -26.6%
Cc1c(NS(=O)(=O)c2cc(C(=O)NCC3CCCO3)cc(Cl)c2Cl)c(=O)n(-c2ccccc2)n1C (stereo not given),"inconclusive: 25.9 µM [activator, single point]",
CC(C)NC(=O)c1ccc2c(c1)N(CC(=O)Nc1ccccc1F)C(=O)C(C)(C)O2,"inconclusive: 18.3 µM [inhibitor, partial curve]",

SMILES,Potency,"activity change, negative = inhibition"
Cc1ccc(SC(C)C(=O)NCCC2=CCCCC2)cc1 (stereo not given),"inconclusive: 20.6 µM [activator, partial curve, poor fit]",
COc1ccc2c(c1OC)C(=O)O[C@@H]2[C@H]1c2c(cc3c(c2OC)OCO3)CCN1C,,inactive: -16.5%
CN(C)CC(C(=O)c1ccccc1)c1ccccc1 (stereo not given),active: 16.4 µM,
O=c1sc2ccccc2n1Cc1ccccc1,"inconclusive: 29.1 µM [activator, partial curve, poor fit]",
CC(=O)c1ccc(N2CCN(C(=O)C3CCN(S(=O)(=O)c4ccc5c(c4)CC(C)N5C(C)=O)CC3)CC2)cc1 (stereo not given),,inactive: -5.83%
CN(c1ccccc1)S(=O)(=O)c1cccc(NC(=O)c2cc(=O)c3ccccc3o2)c1,active: 14.6 µM,
COc1cc(/C=C/C(=O)c2cccc([N+](=O)[O-])c2)cc(OC)c1OC,"inconclusive: 29.1 µM [inhibitor, single point]",
CC(C)[C@@H]1COC(c2cccc(C3=N[C@H](C(C)C)CO3)c2)=N1,"inconclusive: 6.51 µM [activator, single point]",
S=C(NCCc1ccccc1)Nc1cnc2ccccc2c1,"inconclusive: 14.6 µM [activator, partial curve]",
CS(=O)(=O)N1CCN(c2ccccc2NC(=S)NC(=O)c2ccccc2[N+](=O)[O-])CC1,"inconclusive: 16.4 µM [inhibitor, single point]",
COCC(C)n1c(SCC(=O)N2CCc3ccccc3C2)nc2ccccc2c1=O (stereo not given),"inconclusive: 20.6 µM [inhibitor, single point]",
CC1=NOC(=O)/C1=C/c1ccc(O)c(Cl)c1,,inactive: -9.53%
S=c1[nH]nc(-c2ccco2)n1/N=C/c1ccccc1Cl,,inactive: -4.58%
COC(=O)c1oc2c(c1C)C1(CCC2)SCCS1,,inactive: -19.3%
COCCCNC(=O)c1c[nH]c2ccc(S(=O)(=O)N3CCC(C)CC3)cc2c1=O,"inconclusive: 29.1 µM [inhibitor, single point]",
COc1ccc(NC(=S)NC(=O)CC(C)C)c(OC)c1,,inactive: 6.31%
Cc1ccccc1-n1nc2c(c1NC(=O)c1c(-c3ccccc3Cl)noc1C)CSC2,"inconclusive: 25.9 µM [activator, single point]",
CN(C(=O)c1cc(-n2cnnc2)ccc1Cl)c1ccccc1,"inconclusive: 18.4 µM [activator, single point]",
O=C(Nc1cccc(C(=O)N2CCN(Cc3ccccc3)CC2)c1)c1ccccc1,active: 20.6 µM,
CCCC(=O)Nc1cc(Cl)ccc1N1CCN(C(=O)CC)CC1,,inactive: -6.86%
CCn1c(CSc2nc3ccccc3s2)nnc1SCC(=O)c1ccc(Cl)cc1,,inactive: 4.94%
COc1ccc(N=Cc2c(C)[nH][nH]c2=O)cc1,"inconclusive: 29.1 µM [inhibitor, single point]",
